PubChem BioAssay AID1159578 – Peter MacCallum Cancer Centre | 2015
Here is a random part of about 18,000 reagents. About 1,030 of them (5.7%) were called active. 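Inactive calls also include pools with fewer than 3300 nuclei, whose migration was not assessed.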 Raw values vary from plate to plate and are shown uncorrected. A number with no mark means an inactive call. Not all columns of the deposit are shown.

Screen: 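siRNA pools altering how lymphatic endothelial cells close a scratch wound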 (primary screen)
Cells: human lymphatic endothelial cells
Reagents: siRNA pool against human genes, 40 nM
Duration: 48 h after transfection
Read-out: 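Cells stained with dye and imaged after a scratch; covered wound area and nuclei counted, duplicates averaged, migration set against mock wells and turned into a robust z-score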
Reading the numbers: migration robust z-score: higher = faster migration into the scratch; nuclei per well: higher = more cells in the well
Call rule: 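Migration changed when robust z exceeds 2 or falls below -2 and mean nuclei number is at least 3300; otherwise not called changed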
Meaning of the calls: active = migration changed; inactive = no migration change, or too few cells

gene symbol,migration robust z-score,migration class with cell-count check,"nuclei per well, duplicate mean"
BBOX1 (gamma-butyrobetaine hydroxylase 1),-1.01,migration z between -2 and 2; enough cells,5800
FLG2 (filaggrin 2),-2.34 (active),migration z below -2; enough cells,4867
DONSON (DNA replication fork stabilization factor DONSON),0.6,migration z between -2 and 2; enough cells,3770
UNC5B (unc-5 netrin receptor B),-0.49,migration z between -2 and 2; enough cells,3382
PTPN18 (protein tyrosine phosphatase non-receptor type 18),-0.86,migration z between -2 and 2; enough cells,5322
"RAB40A (RAB40A, member RAS oncogene family)",-0.94,migration z between -2 and 2; enough cells,5258
"GAPDHS (glyceraldehyde-3-phosphate dehydrogenase, spermatogenic)",-0.3,migration z between -2 and 2; enough cells,5852
GJD3 (gap junction protein delta 3),0.56,migration z between -2 and 2; enough cells,6088
SFT2D3 (SFT2 domain containing 3),-1.15,migration z between -2 and 2; enough cells,6032
OVGP1 (oviductal glycoprotein 1),-0.18,migration z between -2 and 2; enough cells,5788
OPRD1 (opioid receptor delta 1),-0.18,migration z between -2 and 2; enough cells,4340
ATPAF1 (ATP synthase mitochondrial F1 complex assembly factor 1),1.13,migration z between -2 and 2; enough cells,5548
ZNF142 (zinc finger protein 142),1.28,migration z between -2 and 2; enough cells,5706
FAM177B (family with sequence similarity 177 member B),-0.01,migration z between -2 and 2; enough cells,5640
HMGA1 (high mobility group AT-hook 1),0.21,migration z between -2 and 2; enough cells,5104
RTP1 (receptor transporter protein 1),0.66,migration z between -2 and 2; enough cells,5373
GPD1L (glycerol-3-phosphate dehydrogenase 1 like),0.75,migration z between -2 and 2; enough cells,4867

Reagents above marked active:
gene symbol,migration robust z-score,migration class with cell-count check,"nuclei per well, duplicate mean"
FLG2 (filaggrin 2),-2.34 (active),migration z below -2; enough cells,4867

The results go on.
gene symbol,migration robust z-score,migration class with cell-count check,"nuclei per well, duplicate mean"
RNASEH2C (ribonuclease H2 subunit C),-2.46 (active),migration z below -2; enough cells,4392
OR4K17 (olfactory receptor family 4 subfamily K member 17),-0.03,migration z between -2 and 2; enough cells,6564
ELOVL5 (ELOVL fatty acid elongase 5),2.08 (active),migration z above 2; enough cells,5146
DDX25 (DEAD-box helicase 25),0.42,migration z between -2 and 2; enough cells,5792
NT5DC1 (5'-nucleotidase domain containing 1),0.36,migration z between -2 and 2; enough cells,5286
SLF2 (SMC5/6 complex localization factor 2),0.62,migration z between -2 and 2; enough cells,5426
CD320 (CD320 molecule),2.01 (active),migration z above 2; enough cells,7690
KCNIP2 (potassium voltage-gated channel interacting protein 2),-1.87,migration z between -2 and 2; enough cells,5674
CNR1 (cannabinoid receptor 1),-0.34,migration z between -2 and 2; enough cells,5312
KCNS1,-1.22,migration z between -2 and 2; enough cells,5232
ARHGEF39 (Rho guanine nucleotide exchange factor 39),-0.67,migration z between -2 and 2; enough cells,5292
PCGF3 (polycomb group ring finger 3),0.13,migration z between -2 and 2; enough cells,3884
SNAP25 (synaptosome associated protein 25),0.26,migration z between -2 and 2; enough cells,5474
ATL3 (atlastin GTPase 3),-2.56 (active),migration z below -2; enough cells,3700
CREB3L3 (cAMP responsive element binding protein 3 like 3),-0.23,migration z between -2 and 2; enough cells,4566
NTRK3 (neurotrophic receptor tyrosine kinase 3),-0.94,migration z between -2 and 2; enough cells,4714
SLC25A15,-2.41,under 3300 nuclei; migration not judged,3290
CA7 (carbonic anhydrase 7),-0.18,migration z between -2 and 2; enough cells,6034
"MAL2 (mal, T cell differentiation protein 2)",-0.62,migration z between -2 and 2; enough cells,5190
TMUB1 (transmembrane and ubiquitin like domain containing 1),0.54,migration z between -2 and 2; enough cells,5704
KLB (klotho beta),1.04,migration z between -2 and 2; enough cells,3629
EXD3 (exonuclease 3'-5' domain containing 3),-0.54,migration z between -2 and 2; enough cells,5436
